We go through 31 targets from the supplement of paper PMC12819154, “High-throughput peptide-centric local stability assay extends protein–ligand identification to membrane proteins, tissues and bacteria” (Nature Structural & Molecular Biology, 2025).

By UniProt entry, the sequences of proteins in these tests, tags left out. Where a name states a change or a piece, a line headed by the entry shows the natural chain unless it says otherwise.
UniProt Q9QUG9: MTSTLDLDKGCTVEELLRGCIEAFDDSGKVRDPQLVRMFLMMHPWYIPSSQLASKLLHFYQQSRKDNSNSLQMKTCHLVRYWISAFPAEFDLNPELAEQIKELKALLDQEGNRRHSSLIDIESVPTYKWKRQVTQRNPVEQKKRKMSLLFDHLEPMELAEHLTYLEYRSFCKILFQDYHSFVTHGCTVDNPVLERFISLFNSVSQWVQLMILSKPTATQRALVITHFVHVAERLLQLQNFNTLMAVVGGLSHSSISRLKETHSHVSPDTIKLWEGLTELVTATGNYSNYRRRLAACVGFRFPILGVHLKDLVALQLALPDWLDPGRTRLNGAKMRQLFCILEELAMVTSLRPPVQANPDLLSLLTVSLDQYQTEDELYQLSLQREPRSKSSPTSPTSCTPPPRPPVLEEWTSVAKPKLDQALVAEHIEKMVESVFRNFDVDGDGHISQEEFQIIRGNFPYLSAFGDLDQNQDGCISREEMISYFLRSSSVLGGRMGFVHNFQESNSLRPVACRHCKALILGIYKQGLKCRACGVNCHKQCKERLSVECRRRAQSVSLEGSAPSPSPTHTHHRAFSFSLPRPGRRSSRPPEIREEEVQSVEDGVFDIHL
UniProt Q9ES97: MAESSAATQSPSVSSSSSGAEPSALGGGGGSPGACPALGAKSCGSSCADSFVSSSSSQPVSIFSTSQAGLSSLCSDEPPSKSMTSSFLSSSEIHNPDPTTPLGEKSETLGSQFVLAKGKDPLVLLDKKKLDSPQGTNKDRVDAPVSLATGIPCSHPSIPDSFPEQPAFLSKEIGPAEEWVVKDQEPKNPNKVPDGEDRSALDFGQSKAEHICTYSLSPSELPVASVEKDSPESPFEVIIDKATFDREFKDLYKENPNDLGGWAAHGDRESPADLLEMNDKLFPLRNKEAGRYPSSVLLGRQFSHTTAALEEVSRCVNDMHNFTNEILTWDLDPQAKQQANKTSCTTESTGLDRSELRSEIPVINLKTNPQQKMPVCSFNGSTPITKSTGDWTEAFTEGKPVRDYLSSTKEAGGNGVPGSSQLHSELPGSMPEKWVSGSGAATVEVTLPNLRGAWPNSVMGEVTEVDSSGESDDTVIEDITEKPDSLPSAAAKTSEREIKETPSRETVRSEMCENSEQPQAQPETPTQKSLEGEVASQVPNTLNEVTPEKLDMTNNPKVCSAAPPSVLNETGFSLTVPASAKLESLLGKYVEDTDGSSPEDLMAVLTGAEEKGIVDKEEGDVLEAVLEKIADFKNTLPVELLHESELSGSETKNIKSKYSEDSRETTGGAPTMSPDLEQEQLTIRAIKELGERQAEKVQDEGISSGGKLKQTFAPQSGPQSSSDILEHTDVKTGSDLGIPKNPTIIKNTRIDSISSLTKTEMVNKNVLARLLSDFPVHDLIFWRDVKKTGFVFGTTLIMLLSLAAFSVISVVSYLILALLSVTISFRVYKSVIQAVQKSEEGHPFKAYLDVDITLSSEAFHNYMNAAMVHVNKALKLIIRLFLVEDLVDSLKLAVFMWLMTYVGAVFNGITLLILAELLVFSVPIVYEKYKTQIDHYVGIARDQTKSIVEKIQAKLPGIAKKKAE
UniProt Q9JMD0: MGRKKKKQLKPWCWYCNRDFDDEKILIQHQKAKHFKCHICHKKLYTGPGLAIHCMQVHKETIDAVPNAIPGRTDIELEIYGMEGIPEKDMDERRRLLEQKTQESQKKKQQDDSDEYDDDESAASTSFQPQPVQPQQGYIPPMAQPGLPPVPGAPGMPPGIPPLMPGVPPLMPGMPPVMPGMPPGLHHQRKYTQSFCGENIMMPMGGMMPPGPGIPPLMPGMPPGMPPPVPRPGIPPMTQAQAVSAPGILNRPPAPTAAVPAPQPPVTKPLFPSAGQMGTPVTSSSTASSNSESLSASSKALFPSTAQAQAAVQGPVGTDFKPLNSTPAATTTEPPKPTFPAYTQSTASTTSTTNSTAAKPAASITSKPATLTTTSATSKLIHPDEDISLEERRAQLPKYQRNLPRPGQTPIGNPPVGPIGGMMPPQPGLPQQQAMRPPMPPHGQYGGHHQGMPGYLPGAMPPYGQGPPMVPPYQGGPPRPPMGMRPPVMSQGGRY
UniProt Q9JM73: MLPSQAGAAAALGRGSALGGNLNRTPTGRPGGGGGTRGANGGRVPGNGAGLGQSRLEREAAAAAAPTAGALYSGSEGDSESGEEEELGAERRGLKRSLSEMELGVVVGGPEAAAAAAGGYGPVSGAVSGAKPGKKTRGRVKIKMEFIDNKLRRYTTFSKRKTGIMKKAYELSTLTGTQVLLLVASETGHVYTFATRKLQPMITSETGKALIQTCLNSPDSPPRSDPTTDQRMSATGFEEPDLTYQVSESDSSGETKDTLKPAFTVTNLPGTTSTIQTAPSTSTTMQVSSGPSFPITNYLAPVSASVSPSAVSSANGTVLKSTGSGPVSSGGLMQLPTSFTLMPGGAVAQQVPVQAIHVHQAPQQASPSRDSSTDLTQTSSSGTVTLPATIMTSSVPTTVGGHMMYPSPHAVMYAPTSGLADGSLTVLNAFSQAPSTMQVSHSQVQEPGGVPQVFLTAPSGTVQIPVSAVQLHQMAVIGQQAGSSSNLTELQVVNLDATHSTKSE
UniProt Q9JLB9, whole entry: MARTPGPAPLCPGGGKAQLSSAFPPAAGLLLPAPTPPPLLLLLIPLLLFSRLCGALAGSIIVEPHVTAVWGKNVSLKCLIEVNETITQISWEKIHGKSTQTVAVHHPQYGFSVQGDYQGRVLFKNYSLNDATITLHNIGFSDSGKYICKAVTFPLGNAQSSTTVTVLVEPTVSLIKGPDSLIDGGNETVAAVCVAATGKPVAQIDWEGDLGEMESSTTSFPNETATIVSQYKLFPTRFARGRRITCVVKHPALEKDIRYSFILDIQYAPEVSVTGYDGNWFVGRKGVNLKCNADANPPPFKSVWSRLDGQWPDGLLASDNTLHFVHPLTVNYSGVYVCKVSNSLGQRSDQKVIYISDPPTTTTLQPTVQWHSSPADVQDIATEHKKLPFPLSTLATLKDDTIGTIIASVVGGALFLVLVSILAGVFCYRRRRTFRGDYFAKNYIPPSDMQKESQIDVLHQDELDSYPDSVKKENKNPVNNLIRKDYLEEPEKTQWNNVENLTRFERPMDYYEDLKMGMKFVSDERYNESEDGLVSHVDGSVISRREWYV
UniProt Q9JHK5: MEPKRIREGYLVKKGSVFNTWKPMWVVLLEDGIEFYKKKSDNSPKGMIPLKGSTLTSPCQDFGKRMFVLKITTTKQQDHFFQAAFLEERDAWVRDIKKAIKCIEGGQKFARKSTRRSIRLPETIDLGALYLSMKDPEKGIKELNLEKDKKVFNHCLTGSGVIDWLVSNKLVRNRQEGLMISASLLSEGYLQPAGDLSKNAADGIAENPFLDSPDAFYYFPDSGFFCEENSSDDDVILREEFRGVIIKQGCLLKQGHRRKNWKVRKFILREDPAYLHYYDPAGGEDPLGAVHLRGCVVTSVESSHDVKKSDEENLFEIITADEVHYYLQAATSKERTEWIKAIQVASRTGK
UniProt Q9QUI6: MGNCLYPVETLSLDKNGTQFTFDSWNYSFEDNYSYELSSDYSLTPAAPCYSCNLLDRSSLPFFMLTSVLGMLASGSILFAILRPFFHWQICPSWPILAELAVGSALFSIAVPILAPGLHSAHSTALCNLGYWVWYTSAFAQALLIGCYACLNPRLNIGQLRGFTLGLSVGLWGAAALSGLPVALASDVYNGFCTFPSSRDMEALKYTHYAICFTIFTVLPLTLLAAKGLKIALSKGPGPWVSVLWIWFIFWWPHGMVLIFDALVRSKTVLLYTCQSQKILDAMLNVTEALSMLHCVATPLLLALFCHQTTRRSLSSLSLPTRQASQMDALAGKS
UniProt Q9JI08: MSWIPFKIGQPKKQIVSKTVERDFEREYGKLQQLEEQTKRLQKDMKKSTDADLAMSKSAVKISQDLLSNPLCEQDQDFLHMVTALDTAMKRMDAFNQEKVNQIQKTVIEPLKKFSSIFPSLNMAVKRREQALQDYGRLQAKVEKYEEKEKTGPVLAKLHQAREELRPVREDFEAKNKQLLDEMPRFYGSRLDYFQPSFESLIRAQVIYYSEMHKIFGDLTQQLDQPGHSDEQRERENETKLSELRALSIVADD
UniProt Q9JHI2: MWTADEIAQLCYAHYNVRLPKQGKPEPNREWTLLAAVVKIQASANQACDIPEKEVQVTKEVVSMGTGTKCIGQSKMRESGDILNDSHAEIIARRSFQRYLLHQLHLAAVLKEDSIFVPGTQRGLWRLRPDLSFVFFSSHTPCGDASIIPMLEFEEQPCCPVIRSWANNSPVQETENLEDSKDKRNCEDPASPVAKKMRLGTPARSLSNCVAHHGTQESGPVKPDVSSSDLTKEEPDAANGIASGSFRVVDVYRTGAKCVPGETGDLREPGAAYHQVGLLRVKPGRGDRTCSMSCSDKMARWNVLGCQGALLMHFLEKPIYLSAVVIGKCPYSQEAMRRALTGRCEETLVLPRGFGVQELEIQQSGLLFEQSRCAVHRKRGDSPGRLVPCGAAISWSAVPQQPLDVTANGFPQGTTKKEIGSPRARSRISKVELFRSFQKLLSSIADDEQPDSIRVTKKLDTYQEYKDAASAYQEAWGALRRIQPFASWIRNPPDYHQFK
UniProt Q9EST4: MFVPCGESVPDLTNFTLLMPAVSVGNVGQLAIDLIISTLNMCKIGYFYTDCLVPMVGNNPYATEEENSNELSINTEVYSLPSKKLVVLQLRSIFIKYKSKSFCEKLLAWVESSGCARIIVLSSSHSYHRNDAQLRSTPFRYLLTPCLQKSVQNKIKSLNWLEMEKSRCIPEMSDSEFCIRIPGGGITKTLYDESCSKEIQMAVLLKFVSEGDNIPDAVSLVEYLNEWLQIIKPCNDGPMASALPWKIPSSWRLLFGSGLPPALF
UniProt Q9JIX8: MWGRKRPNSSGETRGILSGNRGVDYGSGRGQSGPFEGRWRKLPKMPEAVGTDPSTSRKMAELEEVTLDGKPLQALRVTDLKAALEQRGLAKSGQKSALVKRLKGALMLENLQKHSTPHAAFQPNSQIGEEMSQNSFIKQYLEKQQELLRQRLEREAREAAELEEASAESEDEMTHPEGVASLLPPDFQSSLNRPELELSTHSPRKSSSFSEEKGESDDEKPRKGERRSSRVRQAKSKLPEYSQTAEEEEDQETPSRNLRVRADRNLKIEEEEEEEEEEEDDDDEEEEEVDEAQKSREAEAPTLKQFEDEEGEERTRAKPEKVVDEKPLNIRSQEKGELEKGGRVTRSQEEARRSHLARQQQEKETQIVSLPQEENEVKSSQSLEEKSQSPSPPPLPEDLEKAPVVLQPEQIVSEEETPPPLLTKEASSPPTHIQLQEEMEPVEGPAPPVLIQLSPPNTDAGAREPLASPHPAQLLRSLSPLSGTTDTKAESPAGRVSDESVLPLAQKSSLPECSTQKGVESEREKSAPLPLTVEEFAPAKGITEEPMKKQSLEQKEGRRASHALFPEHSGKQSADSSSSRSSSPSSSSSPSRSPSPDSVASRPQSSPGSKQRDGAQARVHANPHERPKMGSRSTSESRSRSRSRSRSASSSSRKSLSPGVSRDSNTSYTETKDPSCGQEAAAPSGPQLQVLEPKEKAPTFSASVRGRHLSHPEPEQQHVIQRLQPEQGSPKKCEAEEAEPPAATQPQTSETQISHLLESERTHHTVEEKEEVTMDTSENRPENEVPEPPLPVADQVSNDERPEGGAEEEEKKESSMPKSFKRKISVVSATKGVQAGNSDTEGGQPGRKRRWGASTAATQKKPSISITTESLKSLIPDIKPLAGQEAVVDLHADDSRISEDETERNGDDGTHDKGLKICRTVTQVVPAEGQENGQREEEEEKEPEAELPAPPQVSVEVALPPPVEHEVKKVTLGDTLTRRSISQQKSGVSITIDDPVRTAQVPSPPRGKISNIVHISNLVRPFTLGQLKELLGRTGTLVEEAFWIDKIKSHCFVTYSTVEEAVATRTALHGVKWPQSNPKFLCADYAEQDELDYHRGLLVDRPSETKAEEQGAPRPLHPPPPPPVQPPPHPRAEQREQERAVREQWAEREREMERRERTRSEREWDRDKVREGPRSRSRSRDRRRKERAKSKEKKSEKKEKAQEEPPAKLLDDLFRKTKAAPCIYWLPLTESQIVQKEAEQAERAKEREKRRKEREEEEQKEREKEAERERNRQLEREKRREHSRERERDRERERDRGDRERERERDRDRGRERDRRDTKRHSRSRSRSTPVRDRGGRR
UniProt Q9JLC3, whole entry: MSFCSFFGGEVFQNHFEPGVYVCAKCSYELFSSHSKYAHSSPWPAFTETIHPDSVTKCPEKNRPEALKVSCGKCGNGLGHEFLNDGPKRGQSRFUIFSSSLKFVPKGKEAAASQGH
UniProt Q9JMD3: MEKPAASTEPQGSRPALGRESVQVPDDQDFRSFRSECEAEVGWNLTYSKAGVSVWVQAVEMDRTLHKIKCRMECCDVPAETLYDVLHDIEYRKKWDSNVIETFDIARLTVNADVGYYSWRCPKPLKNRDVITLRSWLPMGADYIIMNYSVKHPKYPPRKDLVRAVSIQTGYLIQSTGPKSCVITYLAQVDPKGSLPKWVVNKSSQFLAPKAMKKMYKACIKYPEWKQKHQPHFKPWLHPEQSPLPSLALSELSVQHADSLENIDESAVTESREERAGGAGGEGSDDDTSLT

The other results are listed elsewhere or left out. Small differences around the control level are noise.

Compound in this assay: CN[C@@H]1C[C@H]2O[C@@](C)([C@@H]1OC)n1c3ccccc3c3c4c(c5c6ccccc6n2c5c31)C(=O)NC4 [staurosporine]
The assay can be described thus: log2 fold change of tryptic peptide abundance, ligand vs vehicle (limited proteolysis) (log2 ratio); higher = more trypsin-susceptible (destabilized). Particulars: ligand concentration: 20 uM; sample: mouse liver crude lysate; replicate design: treated separately.
As to “UniProt Q9JM96 (peptide sequence: SLSSSPVKK, peptide start residue: 136)”, the log2 fold change was -0.268.

Turning to “UniProt Q9ES28 (peptide sequence: KSTAALEEDAQILK, peptide start residue: 681)”, the log2 fold change is -0.363.

“UniProt Q9QUG9 (peptide sequence: FPILGVHLK, peptide start residue: 301)”: the log2 fold change is 0.353.

For “UniProt Q9QX29 (peptide sequence: RHNLRSFTER, peptide start residue: 693)”, the log2 fold change was determined as 5.84e-05.

Regarding “UniProt Q9ES97 (peptide sequence: SIVEKIQAK, peptide start residue: 946)”, the log2 fold change was 0.373.

With “UniProt Q9JMD0 (peptide sequence: PAASITSKPATLTTTSATSK, peptide start residue: 360)”, the log2 fold change stood at 0.418.

Regarding “UniProt Q9JM73 (peptide sequence: IKMEFIDNK, peptide start residue: 142)”, the log2 fold change came to 0.0854.

On to “UniProt Q9JK30 (peptide sequence: TDLYHLQK, peptide start residue: 531)”, for which the log2 fold change worked out at 0.0959.

For “UniProt Q9JLB9 (peptide sequence: STQTVAVHHPQYGFSVQGDYQGR, peptide start residue: 98)”, the log2 fold change was 0.219.

Regarding “UniProt Q9JHK5 (peptide sequence: EDPAYLHYYDPAGGEDPLGAVHLR, peptide start residue: 270)”, the log2 fold change is 0.0655.

On to “UniProt Q9QWH1 (peptide sequence: DLDLPDMHMR, peptide start residue: 760)”, for which the log2 fold change is -0.243.

As to “UniProt Q9JL15 (peptide sequence: ENIQKPGK, peptide start residue: 172)”, the log2 fold change worked out at 0.102.

“UniProt Q9QUI6 (peptide sequence: QASQMDALAGKS, peptide start residue: 323)”: the log2 fold change is -0.23.

“UniProt Q9JI08 (peptide sequence: KSTDADLAMSK, peptide start residue: 47)”: the log2 fold change is -0.597.

For “UniProt Q9JHI2 (peptide sequence: NPPDYHQFK, peptide start residue: 491)”, the log2 fold change turned out to be 0.468.

On to “UniProt Q9ESK9 (peptide sequence: SVMETADEGR, peptide start residue: 1420)”, for which the log2 fold change was determined as 0.543.

For the target “UniProt Q9JIW5 (peptide sequence: GAMDELER, peptide start residue: 50)”, the log2 fold change is -0.381.

As to “UniProt Q9JL35 (peptide sequence: EGHHEEGGKEDLHEEDGK, peptide start residue: 336)”, the log2 fold change was -0.472.

“UniProt Q9ESL4 (peptide sequence: NFSSLNLSSR, peptide start residue: 647)”: the log2 fold change was -0.107.

In the case of “UniProt Q9EST4 (peptide sequence: TLYDESCSK, peptide start residue: 189)”, the log2 fold change was found to be 0.185.

Consider “UniProt Q9JHT5 (peptide sequence: AGELGLGGAGTR, peptide start residue: 41)”, for which the log2 fold change worked out at 0.209.

“UniProt Q9JKS4 (peptide sequence: TQSKPEDEADEWAR, peptide start residue: 249)”: the log2 fold change is -0.00289.

With “UniProt Q9JLJ2 (peptide sequence: HGYYMTPCILTNCR, peptide start residue: 369)”, the log2 fold change turned out to be 0.534.

For the target “UniProt Q9JM76 (peptide sequence: WWTCFVK, peptide start residue: 159)”, the log2 fold change came to 0.254.

On to “UniProt Q9JIX8 (peptide sequence: APTFSASVR, peptide start residue: 697)”, for which the log2 fold change came to 0.235.

On to “UniProt Q9JLC3 (peptide sequence: CGNGLGHEFLNDGPKR, peptide start residue: 74)”, for which the log2 fold change was -0.846.

In the case of “UniProt Q9JI75 (peptide sequence: VLIVYAHQEPK, peptide start residue: 6)”, the log2 fold change is -0.0758.

Regarding “UniProt Q9JK92 (peptide sequence: TKDGYVEVSGK, peptide start residue: 114)”, the log2 fold change is -0.131.

Consider “UniProt Q9JMD3 (peptide sequence: KKWDSNVIETFDIAR, peptide start residue: 93)”, for which the log2 fold change was -0.422.

As for “UniProt Q9ES34 (peptide sequence: LGLVETSSASPHVTHITIR, peptide start residue: 670)”, the log2 fold change was -0.583.

As for “UniProt Q9JI38 (peptide sequence: HTSAFVEGVK, peptide start residue: 399)”, the log2 fold change turned out to be 0.214.
